No constants are given. Whether binding was seen depends on the method and setting. In cells and extracts the contact can be indirect. Some results given as binding are weak or reduced against the parent protein; the word gives no strength.
Target: T1, caspase-1 (Casp1) (mouse (endogenous in BMDM)), P29452
T1 chain: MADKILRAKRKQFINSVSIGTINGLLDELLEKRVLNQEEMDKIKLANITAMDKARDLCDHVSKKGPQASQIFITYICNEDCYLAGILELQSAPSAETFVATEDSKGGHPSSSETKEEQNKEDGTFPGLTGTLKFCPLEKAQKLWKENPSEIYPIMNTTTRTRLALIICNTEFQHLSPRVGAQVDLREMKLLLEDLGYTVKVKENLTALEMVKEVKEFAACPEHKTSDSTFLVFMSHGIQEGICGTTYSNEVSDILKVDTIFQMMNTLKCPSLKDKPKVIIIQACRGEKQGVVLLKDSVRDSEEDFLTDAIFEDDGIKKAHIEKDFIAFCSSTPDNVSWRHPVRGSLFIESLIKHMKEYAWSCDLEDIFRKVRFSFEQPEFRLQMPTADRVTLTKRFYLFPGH
Assay: proximity ligation; PLIC on acetone-fixed mouse BMDM (F4/80+CD11b+), primed with LPS (1 ug/ml, 2 h) and activated with ATP (5 or 10 mM), compared with non-activated cells; single monoclonal anti caspase-1 with PLA Mouse PLUS and Mouse MINUS probes
Details: remark: other sources report otherwise

- binding: binds
B1: caspase-1 (Casp1), P29452 1-402 (enzyme)
chain: T1 chain
